# Assay results published in publication PMC12040169 (PLOS Biology, 2025).
# The other results are listed elsewhere or left out.
# Tested on: T1, CTL2-GFP (C. trachomatis L2/434/Bu, GFP-expressing)
# T1 construct: L2/434/Bu, GFP-expressing
# Design: species or system HeLa; Intracellular C. trachomatis growth in HeLa cells, bulk GFP fluorescence relative to DMSO
# Conditions: bulk GFP, single well; 28.5 h, 10 µM; inhibitor
row,SMILES,% of control remaining
1,COc1ccc(-c2csc(NC(=O)c3ccccc3-c3ccccc3C(=O)O)n2)cc1 [CBK296076],143.822%
2,C=CCNC(=O)Cn1c(-c2ccco2)cc2cccnc21 [CBK282719],139.127%
3,CCOC(=O)C1CSCCN1C(=O)c1ccc(-n2nc(C)cc2C)cc1 (centres unmarked) [CBK304517],149.09%
4,CCO[C@H]1COC[C@@H]1NC(=O)c1cccc2c1NCCC2 [CBK307113],115.505%
5,Cc1ccccc1NS(=O)(=O)c1cc(CN2C[C@@H](C)NC[C@@H]2C)c2occc2c1 [CBK103579T],117.869%
6,COCCNC(=O)c1ccc(-c2ccccc2)nc1N(C)C [CBK106049],96.2542%
7,CCc1cc(C(=O)NC(c2ccc(F)cc2)c2nccn2C)n(C)n1 (centres unmarked) [CBK281434],76.2478%
8,O=C(Cn1c(C(F)(F)F)nc2ccccc21)NCCN1CCOCC1 [CBK267339],173.122%
9,CC1CCCCC1NC(=O)Cn1ncc2cccn2c1=O (centres unmarked) [CBK283673],133.65%
10,COCCCNC(=O)c1cccs1 [CBK009164],94.6516%
11,CCN(CC)c1ccc(C(=O)Cn2c(=O)n(C(=O)CCCc3ccc(OC)cc3)c3ccccc32)cc1 [CBK106503],195.508%
12,CC1CCN(Cc2ccc(-c3nnn(CC(=O)NCc4ccc(C(F)(F)F)nc4)n3)cc2)CC1 [CBK149721T],97.1952%
13,OCCN(Cc1cccnc1)Cc1cccn1-c1ccccc1Cl [CBK282936],125.375%
14,Cn1cc(C(=O)NCC(c2ccc(F)cc2)N2CCCC2)ccc1=O (centres unmarked) [CBK282843],121.44%
15,O=C(NCCNc1ccc([N+](=O)[O-])cc1Cl)c1ccccc1Cl [CBK263541],99.6802%
16,Cc1ccc(-c2cc3ccccn3c2C(=O)CSc2nncn2C)cc1 [CBK269580],143.862%
17,O=C(O)C(c1c[nH]c2ccccc12)N1CCN(Cc2ccncc2)CC1 (centres unmarked) [CBK286624],133.57%
18,CC(C)c1ccc(S(=O)(=O)N2CC3CC2CO3)cc1 (centres unmarked) [CBK050999],113.515%
19,CC(C)[C@@H](CO)Nc1cncc(-c2cccc3ccccc23)n1 [CBK065566],104.778%
20,OCc1nc2cc3cn[nH]c3cc2[nH]1 [CBK016203],100%
21,CCOC(=O)c1cccc(-c2ccsc2)n1 [CBK149244],94.4935%
22,O=C(Nc1ccc2[nH]ccc2c1)c1cnc(-c2ccc(F)cc2)c(-c2ccncc2)c1 [CBK037451],128.832%
23,Cc1ccc(OCC(=O)NNC(=O)C2COc3ccccc3O2)cc1 (centres unmarked) [CBK263511],132.839%
24,O=C(O)CC1S/C(=N/N=C/c2ccc(-c3cccc([N+](=O)[O-])c3)o2)NC1=O (centres unmarked) [CBK264517],106.133%
25,CCCc1cc(=O)[nH]c2nnc(SCC(=O)NC)n12 [CBK287685],116.387%

row,SMILES,% of control remaining
1,Cn1c(C(C)(C)C)cs/c1=N\NS(=O)(=O)c1ccccc1 [CBK006830B],84.9106%
2,CC(C)Nc1nc(NC(C)C)nc(Oc2ccc(C=O)cc2)n1 [CBK265043],94.1027%
3,O=C(NC(NC1CCS(=O)(=O)C1)C(Cl)(Cl)Cl)c1ccc(Br)cc1 (centres unmarked) [CBK261091],75.4737%
4,COC(=O)c1ccc(NC(=O)CSc2nnc(-c3ccc(C)cc3)n2N)cc1 [CBK266114],100.676%
5,COc1ccc(OC)c(S(=O)(=O)N2CC[C@H]3CC(=O)N(CCN(C)C)CC[C@H]3C2)c1 [CBK288788],106.339%
6,O=C(Nc1ccc(S(=O)(=O)NCCN2CCOCC2)cc1)N1CCCC1 [CBK270015],108.797%
7,COc1ccccc1OCc1ccc(Cl)s1 [CBK002782],152.522%
8,CCCN(CCC#N)S(=O)(=O)c1ccc(C(C)C)cc1 [CBK043453],117.743%
9,COc1cc(CNCCO)cc(Br)c1OCc1cccnc1 [CBK269681C],98.0157%
10,CN(C(=O)CN1CCN(c2cc(-c3cc(C(F)(F)F)cc(C(F)(F)F)c3)ncn2)CC1)c1ccccc1 [CBK091125],171.2%
11,CCOC(=O)CSc1nc2ccccc2c(=O)n1Cc1ccccc1 [CBK054124],110.349%
12,Cc1cc(C(F)(F)F)nn1CCCNC(=O)c1cc(-c2ccccc2)nc2ccccc12 [CBK267755],122.839%
13,Cc1[nH]c(=O)[nH]c(=O)c1S(=O)(=O)N1CCOCC1 [CBK261060],92.7119%
14,CCCC/C=C/c1nccnc1NCCCO [CBK038006],162.926%
15,Cc1cccc(-c2noc(CCC(=O)NCC3CCCO3)n2)c1 (centres unmarked) [CBK268241],83.8644%
16,O=C(NCc1ccccc1)c1ccncc1 [CBK200189],109.326%
17,COc1ccc(-c2cc([C@H]3CN4CC[C@H]3C[C@@H]4CNC(=O)c3ccco3)n(C)n2)cc1 [CBK289099],126.444%
18,Cc1ccc2c(c1C)NC(=O)CC2c1ccc(F)cc1 (centres unmarked) [CBK288221],140.84%
19,CCC(C)(C)c1ccc(S(=O)(=O)NCCCN2CCCC2)cc1 [CBK044126],103.26%
20,COc1cccc2cc(C(=O)C3=C(O)C(=O)N(CCN4CCOCC4)C3c3ccc(F)cc3)oc12 (centres unmarked) [CBK266414],174.038%
21,Cc1cc2nn(-c3ccccc3)nc2cc1NC(=O)c1ccc(-c2cccc([N+](=O)[O-])c2)o1 [CBK263859],100%
22,O=C(CN1CCCC2(CCN(C(=O)Cc3c[nH]c4ccccc34)C2)C1)c1ccsc1 (centres unmarked) [CBK132053],127.437%
23,COc1ccc([C@@]23CC[C@@H](NC(=O)Nc4ccccc4C(F)(F)F)C[C@@H]2N(C)CC3)cc1OC [CBK036466T],111.855%
24,CC1CN(Cc2ccccc2)CCN1c1cnccn1 (centres unmarked) [CBK013684],121.084%
25,Cc1ccc(C)c(NC(=O)CSc2nnc(CCc3ccccc3)n2C)c1 [CBK266365],105.128%
